Experimental data reported in the supplement of paper PMC6411743.
± gives the standard deviation of the averaged measurements. The list shows a part of the results, in another mix than the full data. Most values lie at the level of the controls, where differences are scatter.

Sequences of proteins named here, by UniProt entry; tags and fusion partners are left off. A change or cut given only in a name is not applied to a line headed by its entry.
UniProt P78559: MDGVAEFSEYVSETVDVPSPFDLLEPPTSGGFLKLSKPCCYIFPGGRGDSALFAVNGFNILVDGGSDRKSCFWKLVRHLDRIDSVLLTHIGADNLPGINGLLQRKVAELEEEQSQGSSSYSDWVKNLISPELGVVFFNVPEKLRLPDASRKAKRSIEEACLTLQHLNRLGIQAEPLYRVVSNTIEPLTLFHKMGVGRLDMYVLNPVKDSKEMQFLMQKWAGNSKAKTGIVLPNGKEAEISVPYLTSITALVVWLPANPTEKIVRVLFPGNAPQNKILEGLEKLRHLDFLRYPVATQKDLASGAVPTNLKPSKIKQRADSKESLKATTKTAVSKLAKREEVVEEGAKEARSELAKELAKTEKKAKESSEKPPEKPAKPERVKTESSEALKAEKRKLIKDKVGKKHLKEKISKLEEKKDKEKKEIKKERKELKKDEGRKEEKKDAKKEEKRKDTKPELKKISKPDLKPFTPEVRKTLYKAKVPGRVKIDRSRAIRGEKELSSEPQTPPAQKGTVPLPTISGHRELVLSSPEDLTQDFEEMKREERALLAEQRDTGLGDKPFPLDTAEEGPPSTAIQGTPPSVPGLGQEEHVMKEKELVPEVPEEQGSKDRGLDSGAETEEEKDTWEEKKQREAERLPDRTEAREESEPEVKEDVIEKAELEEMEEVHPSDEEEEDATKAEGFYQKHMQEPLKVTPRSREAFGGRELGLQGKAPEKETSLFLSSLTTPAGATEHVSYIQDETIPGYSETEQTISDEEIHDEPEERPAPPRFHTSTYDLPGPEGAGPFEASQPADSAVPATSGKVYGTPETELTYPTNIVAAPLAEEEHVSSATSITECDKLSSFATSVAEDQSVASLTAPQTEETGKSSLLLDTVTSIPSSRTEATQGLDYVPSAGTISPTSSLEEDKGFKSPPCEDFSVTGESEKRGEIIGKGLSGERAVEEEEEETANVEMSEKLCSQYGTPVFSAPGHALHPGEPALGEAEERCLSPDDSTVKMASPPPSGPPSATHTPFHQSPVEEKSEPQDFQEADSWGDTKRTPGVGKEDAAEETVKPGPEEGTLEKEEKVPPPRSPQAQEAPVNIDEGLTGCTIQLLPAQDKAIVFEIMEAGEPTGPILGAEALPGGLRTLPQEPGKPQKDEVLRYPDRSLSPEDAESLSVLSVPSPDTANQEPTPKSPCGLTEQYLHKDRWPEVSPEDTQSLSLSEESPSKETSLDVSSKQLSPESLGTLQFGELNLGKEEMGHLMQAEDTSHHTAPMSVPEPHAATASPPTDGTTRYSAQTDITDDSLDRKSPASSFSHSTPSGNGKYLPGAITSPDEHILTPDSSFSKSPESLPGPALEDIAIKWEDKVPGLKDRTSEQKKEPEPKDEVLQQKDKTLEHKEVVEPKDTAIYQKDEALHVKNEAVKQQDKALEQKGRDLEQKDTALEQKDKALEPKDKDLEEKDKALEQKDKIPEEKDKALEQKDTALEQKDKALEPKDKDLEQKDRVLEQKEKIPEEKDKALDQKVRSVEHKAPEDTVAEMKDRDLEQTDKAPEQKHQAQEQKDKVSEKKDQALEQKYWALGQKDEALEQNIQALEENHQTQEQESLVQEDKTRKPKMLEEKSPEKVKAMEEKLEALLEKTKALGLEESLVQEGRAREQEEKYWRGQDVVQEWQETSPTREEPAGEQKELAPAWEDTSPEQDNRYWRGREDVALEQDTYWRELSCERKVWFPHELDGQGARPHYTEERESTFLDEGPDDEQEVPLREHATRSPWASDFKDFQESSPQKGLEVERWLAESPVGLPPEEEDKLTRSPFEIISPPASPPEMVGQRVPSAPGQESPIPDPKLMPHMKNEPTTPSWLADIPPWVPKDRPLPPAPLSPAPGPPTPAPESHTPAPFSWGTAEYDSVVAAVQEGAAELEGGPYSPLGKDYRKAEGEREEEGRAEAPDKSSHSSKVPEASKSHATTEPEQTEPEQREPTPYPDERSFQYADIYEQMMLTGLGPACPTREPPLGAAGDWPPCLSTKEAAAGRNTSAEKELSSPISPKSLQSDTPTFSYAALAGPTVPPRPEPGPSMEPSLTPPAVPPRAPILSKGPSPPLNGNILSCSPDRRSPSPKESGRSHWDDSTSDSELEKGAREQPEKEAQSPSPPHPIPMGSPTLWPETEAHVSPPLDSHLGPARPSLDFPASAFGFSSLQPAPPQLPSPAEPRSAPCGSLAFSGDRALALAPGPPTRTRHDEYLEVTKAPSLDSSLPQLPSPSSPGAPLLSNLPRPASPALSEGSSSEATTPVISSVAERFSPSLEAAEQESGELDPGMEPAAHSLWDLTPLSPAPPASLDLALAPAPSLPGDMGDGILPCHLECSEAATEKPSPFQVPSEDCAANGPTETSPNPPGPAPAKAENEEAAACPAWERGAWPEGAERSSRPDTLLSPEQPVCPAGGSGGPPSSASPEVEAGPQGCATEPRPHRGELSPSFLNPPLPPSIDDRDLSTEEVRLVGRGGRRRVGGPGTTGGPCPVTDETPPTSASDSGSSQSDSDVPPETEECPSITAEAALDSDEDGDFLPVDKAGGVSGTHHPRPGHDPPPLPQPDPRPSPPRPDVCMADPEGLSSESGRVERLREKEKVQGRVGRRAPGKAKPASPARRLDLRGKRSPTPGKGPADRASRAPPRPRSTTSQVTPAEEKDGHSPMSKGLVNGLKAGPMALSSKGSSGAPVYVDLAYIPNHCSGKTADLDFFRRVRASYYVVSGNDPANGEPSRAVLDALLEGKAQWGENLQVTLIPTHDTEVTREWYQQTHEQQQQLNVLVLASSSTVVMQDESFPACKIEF
UniProt P34913, whole entry: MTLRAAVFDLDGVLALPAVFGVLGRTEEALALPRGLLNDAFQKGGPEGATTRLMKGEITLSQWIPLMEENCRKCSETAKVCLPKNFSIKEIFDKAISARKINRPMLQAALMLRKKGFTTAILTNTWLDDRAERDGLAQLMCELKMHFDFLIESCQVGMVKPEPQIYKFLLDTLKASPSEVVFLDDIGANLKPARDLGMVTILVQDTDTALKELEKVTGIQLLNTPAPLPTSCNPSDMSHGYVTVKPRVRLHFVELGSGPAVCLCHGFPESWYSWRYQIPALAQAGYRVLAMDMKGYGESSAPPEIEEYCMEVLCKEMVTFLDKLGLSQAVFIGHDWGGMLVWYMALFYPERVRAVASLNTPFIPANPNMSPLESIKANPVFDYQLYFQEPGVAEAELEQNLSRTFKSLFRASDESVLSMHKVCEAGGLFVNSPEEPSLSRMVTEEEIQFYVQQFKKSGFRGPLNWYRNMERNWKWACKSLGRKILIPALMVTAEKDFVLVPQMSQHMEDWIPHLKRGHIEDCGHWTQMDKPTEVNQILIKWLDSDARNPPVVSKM
UniProt Q8TAG9: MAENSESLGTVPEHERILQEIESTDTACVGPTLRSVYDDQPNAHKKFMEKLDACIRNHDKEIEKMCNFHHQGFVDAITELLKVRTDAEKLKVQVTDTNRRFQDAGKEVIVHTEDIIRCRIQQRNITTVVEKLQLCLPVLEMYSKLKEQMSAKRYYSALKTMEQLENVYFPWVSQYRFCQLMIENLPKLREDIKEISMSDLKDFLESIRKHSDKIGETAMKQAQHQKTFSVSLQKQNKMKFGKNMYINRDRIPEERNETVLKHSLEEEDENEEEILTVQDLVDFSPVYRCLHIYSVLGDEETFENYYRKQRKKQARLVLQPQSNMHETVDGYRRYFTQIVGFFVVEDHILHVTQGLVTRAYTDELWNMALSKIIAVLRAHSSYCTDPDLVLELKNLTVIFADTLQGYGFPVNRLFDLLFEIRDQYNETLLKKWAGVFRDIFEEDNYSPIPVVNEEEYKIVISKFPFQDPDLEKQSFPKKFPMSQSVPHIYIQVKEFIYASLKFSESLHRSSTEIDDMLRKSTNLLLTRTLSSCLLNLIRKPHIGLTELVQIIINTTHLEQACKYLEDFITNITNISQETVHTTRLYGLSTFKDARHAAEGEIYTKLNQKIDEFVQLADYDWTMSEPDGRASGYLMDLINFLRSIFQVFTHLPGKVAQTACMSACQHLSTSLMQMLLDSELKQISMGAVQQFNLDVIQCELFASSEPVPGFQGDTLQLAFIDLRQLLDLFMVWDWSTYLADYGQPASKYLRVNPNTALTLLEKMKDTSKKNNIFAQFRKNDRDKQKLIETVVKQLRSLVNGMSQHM
UniProt Q9BZF9: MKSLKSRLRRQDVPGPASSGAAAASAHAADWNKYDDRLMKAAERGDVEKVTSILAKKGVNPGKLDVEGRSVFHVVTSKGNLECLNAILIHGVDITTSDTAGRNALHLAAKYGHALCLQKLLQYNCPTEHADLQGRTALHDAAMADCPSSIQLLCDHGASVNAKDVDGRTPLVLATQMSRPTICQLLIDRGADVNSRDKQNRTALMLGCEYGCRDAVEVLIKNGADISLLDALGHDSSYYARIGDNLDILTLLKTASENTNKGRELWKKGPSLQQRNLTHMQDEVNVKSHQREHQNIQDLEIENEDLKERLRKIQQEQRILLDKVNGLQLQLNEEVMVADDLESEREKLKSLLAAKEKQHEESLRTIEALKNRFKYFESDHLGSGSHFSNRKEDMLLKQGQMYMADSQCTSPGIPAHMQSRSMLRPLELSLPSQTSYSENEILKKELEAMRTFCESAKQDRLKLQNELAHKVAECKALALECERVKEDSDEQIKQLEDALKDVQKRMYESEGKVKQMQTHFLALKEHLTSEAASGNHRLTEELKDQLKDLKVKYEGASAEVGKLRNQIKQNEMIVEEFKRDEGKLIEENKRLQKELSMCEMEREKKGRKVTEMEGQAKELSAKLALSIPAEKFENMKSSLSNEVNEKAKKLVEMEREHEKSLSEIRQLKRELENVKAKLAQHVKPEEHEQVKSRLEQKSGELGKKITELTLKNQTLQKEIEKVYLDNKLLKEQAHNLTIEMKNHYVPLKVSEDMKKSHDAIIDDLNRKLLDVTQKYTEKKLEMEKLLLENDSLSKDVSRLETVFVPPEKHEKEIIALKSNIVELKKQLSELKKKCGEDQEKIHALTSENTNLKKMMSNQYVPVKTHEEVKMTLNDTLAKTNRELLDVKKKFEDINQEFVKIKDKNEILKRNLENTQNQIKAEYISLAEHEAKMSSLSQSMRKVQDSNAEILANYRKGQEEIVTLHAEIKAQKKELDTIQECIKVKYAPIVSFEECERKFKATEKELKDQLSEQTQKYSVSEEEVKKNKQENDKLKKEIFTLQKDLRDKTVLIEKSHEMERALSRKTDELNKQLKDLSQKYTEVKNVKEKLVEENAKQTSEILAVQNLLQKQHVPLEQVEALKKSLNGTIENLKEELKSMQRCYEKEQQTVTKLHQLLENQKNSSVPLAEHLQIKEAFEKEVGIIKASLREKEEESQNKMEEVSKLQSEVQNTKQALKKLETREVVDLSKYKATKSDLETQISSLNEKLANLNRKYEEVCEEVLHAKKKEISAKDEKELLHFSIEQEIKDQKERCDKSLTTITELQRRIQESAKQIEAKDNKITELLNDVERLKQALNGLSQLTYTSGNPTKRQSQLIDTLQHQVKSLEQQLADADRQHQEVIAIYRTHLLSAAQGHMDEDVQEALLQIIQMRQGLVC
UniProt Q9NZJ0: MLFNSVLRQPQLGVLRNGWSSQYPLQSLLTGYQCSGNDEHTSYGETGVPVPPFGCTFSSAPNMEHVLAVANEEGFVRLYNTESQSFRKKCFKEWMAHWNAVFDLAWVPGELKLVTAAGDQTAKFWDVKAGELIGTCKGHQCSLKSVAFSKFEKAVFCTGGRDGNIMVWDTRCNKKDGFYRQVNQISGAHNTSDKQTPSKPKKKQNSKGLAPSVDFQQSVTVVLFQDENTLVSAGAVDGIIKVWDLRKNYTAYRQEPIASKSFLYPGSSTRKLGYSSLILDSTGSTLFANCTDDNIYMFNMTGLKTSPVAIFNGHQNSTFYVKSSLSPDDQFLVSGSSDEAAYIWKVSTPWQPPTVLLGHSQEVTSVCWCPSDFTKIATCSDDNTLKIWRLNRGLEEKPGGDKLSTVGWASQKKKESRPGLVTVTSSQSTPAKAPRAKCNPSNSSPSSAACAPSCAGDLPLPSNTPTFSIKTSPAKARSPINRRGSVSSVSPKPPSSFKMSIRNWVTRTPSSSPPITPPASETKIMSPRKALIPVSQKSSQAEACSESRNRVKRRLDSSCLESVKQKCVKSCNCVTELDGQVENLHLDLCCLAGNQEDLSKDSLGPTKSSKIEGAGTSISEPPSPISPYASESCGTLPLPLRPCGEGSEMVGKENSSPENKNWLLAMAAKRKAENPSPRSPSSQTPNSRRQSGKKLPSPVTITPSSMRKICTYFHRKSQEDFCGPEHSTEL
UniProt Q9BQE4, whole entry: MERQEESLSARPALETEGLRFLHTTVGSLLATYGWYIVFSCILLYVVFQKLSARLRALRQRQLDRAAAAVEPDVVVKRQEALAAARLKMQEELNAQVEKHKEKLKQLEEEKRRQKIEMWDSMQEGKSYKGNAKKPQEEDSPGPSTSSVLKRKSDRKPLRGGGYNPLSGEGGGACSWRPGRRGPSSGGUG

Compound: Nc1ncnc2c1ncn2[C@@H]1O[C@H](COP(=O)(O)OP(=O)(O)OP(=O)(O)O)[C@@H](O)[C@H]1O [adenosine triphosphate]
Assay: NP40-soluble protein abundance relative to vehicle (solubility fold change) (ratio); higher = more soluble protein in presence of ATP
How it was run: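 Crude Jurkat lysate, prepared by Dounce homogenisation, was exposed to eight concentrations from 0.1 to 10 mM for 10 min at room temperature and then 3 min at 37 °C. Solubilisation used 0.8% NP40 with benzonase for 60 min at 4 °C, followed by ultracentrifugation and TMT labelling of the supernatant for LC-MS/MS. After vsn normalisation of intensities, each value is the fold change against the detergent-processed vehicle within each replicate, across three independent experiments.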

| Target | NP40-soluble protein abundance (concentration: 0.1mM) | NP40-soluble protein abundance (concentration: 0.5mM) |
| --- | --- | --- |
| E9PGC8 (UniProt P78559) | 0.981 ± 0.02 | 0.985 ± 0.049 |
| E5RFU2 and related entries (UniProt P34913) | 0.997 ± 0.014 | 0.996 ± 0.015 |
| F2Z2X4 and related entries (UniProt Q9C0E2) | 1.06 ± 0.074 | 1.01 ± 0.05 |
| F8VX04 and related entries (UniProt Q9H2H9) | 0.912 ± 0.054 | 0.979 ± 0.045 |
| G3V4K3 and related entries (UniProt Q9H9C1) | 1.05 ± 0.046 | 1 ± 0.12 |
| E7EW84 and related entries (UniProt Q8TAG9) | 1.01 ± 0.059 | 0.971 ± 0.044 |
| G3V5X4 and related entries (UniProt Q8WXH0) | 0.9989 ± 0.005 | 1.01 ± 0.038 |
| F5H2B9 and related entries (UniProt Q9BZF9) | 1 ± 0.035 | 1 ± 0.051 |
| E7EW50 and related entries (UniProt O75376) | 0.987 ± 0.024 | 1 ± 0.049 |
| E5RJR5 and related entries (UniProt P63208) | 0.933 ± 0.088 | 0.916 ± 0.093 |
| F5H1D6 and related entries (UniProt Q07864) | 1.1 ± 0.053 | 1.04 ± 0.041 |
| F5GZ90 and related entries (UniProt Q9NZJ0) | 0.989 ± 0.043 | 0.957 ± 0.034 |
| F2Z388 and related entries (UniProt P42766) | 0.984 ± 0.052 | 1 ± 0.094 |
| E9PLD2 and related entries (UniProt Q9H019) | 0.999 ± 0.044 | 1.01 ± 0.023 |
| E7EM64 and related entries (UniProt Q7L5N1) | 1.07 ± 0.079 | 1.07 ± 0.085 |
| F5GXE4 and related entries (UniProt O95260) | 1.03 ± 0.1 | 1.02 ± 0.069 |
| E9PHY5 and related entries (UniProt O43491) | 0.996 ± 0.033 | 0.992 ± 0.039 |
| G3XAJ6 and related entries (UniProt Q14699) | 1.01 ± 0.032 | 0.993 ± 0.035 |
| G3XAN4 and related entries (UniProt Q15629) | 0.946 ± 0.035 | 1.01 ± 0.07 |
| E9PN30 and related entries (UniProt Q9BQE4) | 0.943 ± 0.13 | 0.939 ± 0.16 |
| F5H4V9 and related entries (UniProt Q16342) | 0.951 ± 0.05 | 0.962 ± 0.042 |
| F8VVA7 and related entries (UniProt P61923) | 1.02 ± 0.059 | 1.01 ± 0.11 |
| D6RIE5 and related entries (UniProt Q9ULK6) | 0.884 ± 0.032 | 0.881 ± 0.12 |
| F8VQZ7 and related entries (UniProt P50579) | 1.007 ± 0.009 | 1.018 ± 0.0041 |
| F6T1Q0 and related entries (UniProt Q6L8Q7) | 1.08 ± 0.074 | 1.06 ± 0.085 |
| F8VS36 and related entries (UniProt Q92994) | 0.985 ± 0.049 | 0.984 ± 0.069 |
| G3V1C3 and related entries (UniProt Q9BZZ5) | 0.964 ± 0.014 | 0.9323 ± 0.0065 |

Single records (already shown).
G3XAJ6 and related entries (UniProt Q14699) in the list: NP40-soluble protein abundance (concentration: 0.1mM): 1.01 ± 0.032; NP40-soluble protein abundance (concentration: 0.5mM): 0.993 ± 0.035
E5RJR5 and related entries (UniProt P63208) in the list: NP40-soluble protein abundance (concentration: 0.1mM): 0.933 ± 0.088; NP40-soluble protein abundance (concentration: 0.5mM): 0.916 ± 0.093
